In article doi:10.1101/2023.04.15.537002:
These are yes or no findings as the source states them, for the method shown. In cells and extracts the contact can be indirect. Some entries that bind do so weakly or less than the wild type.

Target: T1, recombinant PfRhopH3 C-terminal fragment (PfRhopH3C; 617-865 aa) (Plasmodium falciparum) (UniProt Q8I395)
T1 sequence: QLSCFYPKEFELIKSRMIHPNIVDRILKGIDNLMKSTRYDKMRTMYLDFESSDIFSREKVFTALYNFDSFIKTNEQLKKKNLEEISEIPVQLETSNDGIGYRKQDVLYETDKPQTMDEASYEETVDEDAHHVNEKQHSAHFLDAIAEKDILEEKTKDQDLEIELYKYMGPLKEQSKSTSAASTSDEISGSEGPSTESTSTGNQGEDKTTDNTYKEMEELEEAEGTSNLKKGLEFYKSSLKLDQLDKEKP
Test: pull-down

B1: native 14-3-3[…] from RBC lysate (protein, UniProt Q04917 1-246)
chain: MGDREQLLQRARLAEQAERYDDMASAMKAVTELNEPLSNEDRNLLSVAYKNVVGARRSSWRVISSIEQKTMADGNEKKLEKVKAYREKIEKELETVCNDVLSLLDKFLIKNCNDFQYESKVFYLKMKGDYYRYLAEVASGEKKNSVVEASEAAYKEAFEISKEQMQPTHPIRLGLALNFSVFYYEIQNAPEQACLLAKQAFDDAIAELDTLNEDSYKDSTLIMQLLRDNLTLWTSDQQDEEAGEGN
Q: How did the binding turn out when B1 was run?
A: binds
